Test system: Candida albicans
Experiment: Antimicrobial activity against Candida albicans at 100 ug after 18 hrs by agar diffusion test
Type: functional, organism-based

NYSTATIN
inhibition zone (IZ): 16 mm
